# Data reported in PubChem BioAssay AID540276 (National Center for Advancing Translational Sciences (NCATS), 2011).
# Out of some 300,000 compounds screened, about 5,400 (1.8%) were called active. The inconclusive results got no clear call from the source; some entries with a clear call stand among them for comparison. Calls come from the whole dose curve; tested in HEK293 cells. Where the call is inconclusive, the potency comes from a doubtful curve fit.
# Experiment: qHTS for inhibitors of binding or entry into cells for Marburg Virus
# Conditions: Marburg virus pseudotyped entry inhibition, cell reporter; series mostly up to 37.8 µM
# Potency is the fitted concentration of half-maximal effect.
row,Structure (SMILES),Potency
1,CC1=CC(C)(C)N2C(=O)C3(C(C#N)=C(N)OC4=C3C(=O)CC(C)(C)C4)c3cc(C)cc1c32 (stereo not drawn),inactive
2,O=C1CC(=O)C(n2cncn2)C(c2c(F)cccc2Cl)C1 (stereo not drawn),"inconclusive: 3.66 µM [activator, partial curve, poor fit]"
3,O=C(C[n+]1cc(-c2ccc(F)cc2)n2c1CCC2)c1cccs1,inactive
4,Cc1ccc(C)c(NC(=O)CSc2nc3nc(-c4cccs4)cc(C(F)(F)F)c3c(=O)[nH]2)c1,inactive
5,C=CCN1C(=O)CSC1=Nc1cccc(O)c1,inactive
6,CCN1C(=O)CS/C1=N\S(=O)(=O)c1ccccc1,inactive
7,Cc1cc(C)n2nc(SCc3nnc(-c4ccccc4Br)o3)nc2n1,"inconclusive: 5.62 µM [activator, single point]"
8,Cc1c(S(=O)(=O)N2CCOCC2)c(=O)n(C)c(=O)n1C,inactive
9,CCN1C(=O)NC(c2ccc(Br)cc2)C(C(=O)OC)=C1C (stereo not drawn),"inconclusive: 0.006 µM [inhibitor, full curve, poor fit]"
10,N#Cc1c(/N=C/c2ccc(O)cc2O)sc2c1C1CCN2CC1,inactive
11,COc1ccc(-c2[nH]c(-c3ccc(Cl)cc3)nc2SCC(=O)Nc2nccs2)cc1,inactive
12,COc1ccc(NC(=O)Oc2ccccc2)cc1Cl,inactive
13,CSc1nc2ccc(C)cc2c(=O)n1-c1cccnc1,inactive
14,Cc1ccccc1NC(=O)c1cc(C(=O)c2cc(Cl)ccc2O)cn(-c2ccccc2C)c1=O,"inconclusive: 6.31 µM [inhibitor, partial curve]"
15,Cc1[nH]n(C(N)=S)c(=O)c1N=Nc1cc(C(F)(F)F)ccc1Cl,"inconclusive: 35.5 µM [activator, single point]"
16,Cc1nc(-c2ccc(S(=O)(=O)Oc3ccccc3Cl)s2)cs1,inactive
17,CC(C)c1ccc(N(C(=O)c2csnn2)C(C(=O)NC2CCCC2)c2ccncc2)cc1 (stereo not drawn),inactive
18,CCN(CC)c1ccc(/C=C(\C#N)c2ccccn2)cc1,"inconclusive: 1.84 µM [inhibitor, full curve, poor fit]"
19,N[C@H](C(=O)O)[C@H](O)C(=O)O,"inconclusive: 3.98 µM [inhibitor, single point]"
20,COc1cccc(CNCCc2ccccc2)c1OC,"inconclusive: 35.5 µM [inhibitor, partial curve, poor fit]"
21,CC(C)Oc1cccc(C(=O)C2CCCN(C(=O)c3noc4c3CCCC4)C2)c1 (stereo not drawn),"inconclusive: 35.5 µM [inhibitor, single point]"
22,CCOc1ccc(N(CC(=O)NCC(C)C)S(C)(=O)=O)cc1,inactive
23,CCOc1cc(/C=N/NC(=O)C(=O)NCc2ccc3c(c2)OCO3)ccc1OCC(=O)N1CCOCC1,inactive
24,COc1ccc(C(=O)NC2CCCCCC2)cc1S(=O)(=O)N1CCOCC1,inactive
25,CN(C)c1ccc(C(C(=O)NCc2ccccc2)N(Cc2cccnc2)C(=O)c2snc(C(N)=O)c2N)cc1 (stereo not drawn),"inconclusive: 17.8 µM [inhibitor, single point]"

row,Structure (SMILES),Potency
1,CCN(Cc1ccccc1)C(c1ccc(C)cc1)c1nnnn1C(C)(C)CC (stereo not drawn),"inconclusive: 22.4 µM [inhibitor, single point]"
2,COc1ccc(NC(=O)c2cc([N+](=O)[O-])ccc2NC(=O)CNCc2ccccn2)c(OC)c1,inactive
3,Cc1nn(C)cc1/C=N/NC(=O)c1ccco1,"inconclusive: 31.6 µM [activator, single point]"
4,O=C(c1ccc2c(c1)OCO2)N1CCCC1,inactive
5,COc1cccc(CNC(=O)Cn2nc(C)n3c(cc4cc(C)ccc43)c2=O)c1OC,inactive
6,Cc1nn(-c2ccccn2)c2c1C(c1c(F)cccc1Cl)C1=C(N2)c2ccccc2C1=O (stereo not drawn),inactive
7,OC(COC(c1ccc(F)cc1)c1ccc(F)cc1)CN1CCc2ccccc2C1 (stereo not drawn),"inconclusive: 35.5 µM [inhibitor, single point]"
8,O=C(NCCN1CCOCC1)c1ccc(-c2ccccc2)cc1,"inconclusive: 18.3 µM [activator, partial curve, poor fit]"
9,CC(=O)Nc1ccc(S(=O)(=O)NC2(C(F)(F)F)NC(=O)N(Cc3ccccc3)C2=O)cc1 (stereo not drawn),inactive
10,C=CCN(c1ccccc1)S(=O)(=O)c1cccc(C(=O)N(CC)CC(=O)Nc2c(F)cccc2F)c1,"inconclusive: 25.1 µM [inhibitor, partial curve, poor fit]"
11,Cc1ccc(-n2ccc(-c3nn(-c4ccccc4)ccc3=O)n2)cc1,"inconclusive: 25.1 µM [inhibitor, single point]"
12,CCc1ccc(NC(=O)c2ccc(OC)c([N+](=O)[O-])c2)cc1,"inconclusive: 7.94 µM [activator, partial curve, poor fit]"
13,COc1ccc(NC(=S)NCc2ccccc2Cl)c(OC)c1,"inconclusive: 35.5 µM [inhibitor, single point]"
14,COc1ccccc1CNS(=O)(=O)c1ccc2c(c1)N(C(C)=O)CC(C)S2 (stereo not drawn),"inconclusive: 14.1 µM [inhibitor, single point]"
15,CCCCN1C(=O)C(O)(CC(=O)c2ccc(CC)cc2)c2cc(Br)ccc21 (stereo not drawn),"inconclusive: 35.5 µM [inhibitor, single point]"
16,O=C(Nc1ccc(NC(=O)C23CC4CC(CC(C4)C2)C3)cn1)c1ccco1,"inconclusive: 1.26 µM [activator, single point]"
17,CC(C)(C)c1cc(CSC(=S)NC2CCS(=O)(=O)C2)c(Br)c(C(C)(C)C)c1 (stereo not drawn),"inconclusive: 35.5 µM [inhibitor, single point]"
18,O=C(Nc1nc(-c2ccc(Oc3ccccc3)cc2)cs1)C1=COCCO1,"inconclusive: 0.891 µM [inhibitor, full curve, poor fit]"
19,COc1ccc(C(=O)C2CCCN(Cc3cccn3-c3nccs3)C2)cc1F (stereo not drawn),"inconclusive: 12.6 µM [inhibitor, partial curve, poor fit]"
20,Cc1ccc2c(c1)C(c1ccccc1)N(C(=O)COc1ccc(Cl)cc1Cl)CC(=O)N2 (stereo not drawn),"inconclusive: 35.5 µM [inhibitor, single point]"
21,COc1cc(CN2CCCCCC2)cc(OC)c1OC,inactive
22,CC1=C(C(=O)Nc2ccccc2)C(c2ccccn2)n2nc(SCc3ccccc3)nc2N1 (stereo not drawn),"inconclusive: 31.6 µM [activator, single point]"
23,Cc1cc(NC(=O)c2ccc3c(c2)OCCO3)no1,"inconclusive: 3.55 µM [inhibitor, full curve, poor fit]"
24,COc1ccc(OCCC(=O)Nc2cc3c(cc2C(=O)O)OCCCO3)cc1,"inconclusive: 3.55 µM [activator, partial curve, poor fit]"
25,CCC1=NN(C(=O)c2ccc(C)cc2)C(O)(c2ccc(Br)cc2)C1 (stereo not drawn),inactive

# Three records drawn at random from those above, as already listed:
row,Structure (SMILES),Potency
21,COc1cc(CN2CCCCCC2)cc(OC)c1OC,inactive
12,CCc1ccc(NC(=O)c2ccc(OC)c([N+](=O)[O-])c2)cc1,"inconclusive: 7.94 µM [activator, partial curve, poor fit]"
3,Cc1nn(C)cc1/C=N/NC(=O)c1ccco1,"inconclusive: 31.6 µM [activator, single point]"

# Carrying on:

row,Structure (SMILES),Potency
1,CCC(C)(C)C1CCC(=NNC(=O)c2ccoc2C)CC1 (stereo not drawn),"inconclusive: 11.2 µM [inhibitor, partial curve, poor fit]"
2,COc1ccc(NC2=NCCC2)cc1,"inconclusive: 35.5 µM [activator, partial curve, poor fit]"
3,Oc1oc(-c2ccccc2)nc1C=NCc1ccncc1,inactive
4,COc1ccccc1CCN1CCCC(CN(C)CC(C)(C)CO)C1 (stereo not drawn),active: 12.6 µM
5,c1nc(N2CCCCC2)c2[nH]cnc2n1,"inconclusive: 8.2 µM [inhibitor, partial curve, poor fit]"
6,CCc1nc(SCC(=O)N2CC(=O)Nc3ccccc32)c2c(C)c(C)sc2n1,"inconclusive: 1.3 µM [inhibitor, full curve, poor fit]"
7,O=C(O)c1ccc(/C=C2\SC(=S)N(Nc3ccccc3)C2=O)cc1,"inconclusive: 35.5 µM [inhibitor, partial curve, poor fit]"
8,CCCCOc1ccc(CNC(=O)NS(=O)(=O)c2ccc(OCC(C)C)cc2)cc1,inactive
9,CC(C)c1ccc(/C=N/Nc2cc(N3CCOCC3)nc(N3CCOCC3)n2)cc1,"inconclusive: 35.5 µM [inhibitor, partial curve, poor fit]"
10,O=C(CN(Cc1ccc(Br)cc1)S(=O)(=O)c1ccccc1)NCc1cccnc1,inactive
11,CCNc1nc(SC(C)C(=O)OC)nc(N2CCOCC2)n1 (stereo not drawn),"inconclusive: 14.6 µM [inhibitor, partial curve, poor fit]"
12,CCOC(=O)C1(Cc2ccccc2)CCCN(C2CCN(C(C)=O)CC2)C1 (stereo not drawn),"inconclusive: 6.31 µM [inhibitor, single point]"
13,COc1cccc(CN(C)C(=O)Cc2c[nH]c3ccccc23)c1,"inconclusive: 3.16 µM [activator, single point]"
14,Cn1c(NN=O)nc2ccccc21,"inconclusive: 10 µM [inhibitor, partial curve, poor fit]"
15,N#C/C(=C/c1ccc(Sc2nc3ccccc3[nH]2)o1)c1ccccc1F,inactive
16,Clc1cccc2sc(N3CCOCC3)nc12,inactive
17,S=C(NCCCN1CCOCC1)N1CCN(c2nc(-c3ccc(Cl)cc3)cs2)CC1,"inconclusive: 16.4 µM [inhibitor, partial curve, poor fit]"
18,CCc1c(O)nc(SCC(=O)N(CC)CC)[nH]c1=O,inactive
19,CCCc1ccc(-c2ccc(-c3noc(-c4ccncc4)n3)cc2)nc1,inactive
20,Clc1ccccc1C1=CC(c2ccco2)n2nnnc2N1 (stereo not drawn),inactive
21,Cc1ccc(C(=O)N/C(=C/c2ccco2)C(=O)O)cc1,"inconclusive: 0.1 µM [activator, full curve, poor fit]"
22,O=C(Nc1ccc(-c2nc3c(ccc4ccccc43)o2)cc1)c1ccco1,"inconclusive: 16.4 µM [inhibitor, single point]"
23,COc1ccc2oc(=Nc3ccccc3)c(-c3nc4ccccc4[nH]3)cc2c1,inactive
